This note sets out measurements from article PMC7018852.

By UniProt entry, the sequences of proteins in these tests, tags left out. Where a name states a change or a piece, a line headed by the entry shows the natural chain unless it says otherwise. Residues count along the entry.
UniProt P43406: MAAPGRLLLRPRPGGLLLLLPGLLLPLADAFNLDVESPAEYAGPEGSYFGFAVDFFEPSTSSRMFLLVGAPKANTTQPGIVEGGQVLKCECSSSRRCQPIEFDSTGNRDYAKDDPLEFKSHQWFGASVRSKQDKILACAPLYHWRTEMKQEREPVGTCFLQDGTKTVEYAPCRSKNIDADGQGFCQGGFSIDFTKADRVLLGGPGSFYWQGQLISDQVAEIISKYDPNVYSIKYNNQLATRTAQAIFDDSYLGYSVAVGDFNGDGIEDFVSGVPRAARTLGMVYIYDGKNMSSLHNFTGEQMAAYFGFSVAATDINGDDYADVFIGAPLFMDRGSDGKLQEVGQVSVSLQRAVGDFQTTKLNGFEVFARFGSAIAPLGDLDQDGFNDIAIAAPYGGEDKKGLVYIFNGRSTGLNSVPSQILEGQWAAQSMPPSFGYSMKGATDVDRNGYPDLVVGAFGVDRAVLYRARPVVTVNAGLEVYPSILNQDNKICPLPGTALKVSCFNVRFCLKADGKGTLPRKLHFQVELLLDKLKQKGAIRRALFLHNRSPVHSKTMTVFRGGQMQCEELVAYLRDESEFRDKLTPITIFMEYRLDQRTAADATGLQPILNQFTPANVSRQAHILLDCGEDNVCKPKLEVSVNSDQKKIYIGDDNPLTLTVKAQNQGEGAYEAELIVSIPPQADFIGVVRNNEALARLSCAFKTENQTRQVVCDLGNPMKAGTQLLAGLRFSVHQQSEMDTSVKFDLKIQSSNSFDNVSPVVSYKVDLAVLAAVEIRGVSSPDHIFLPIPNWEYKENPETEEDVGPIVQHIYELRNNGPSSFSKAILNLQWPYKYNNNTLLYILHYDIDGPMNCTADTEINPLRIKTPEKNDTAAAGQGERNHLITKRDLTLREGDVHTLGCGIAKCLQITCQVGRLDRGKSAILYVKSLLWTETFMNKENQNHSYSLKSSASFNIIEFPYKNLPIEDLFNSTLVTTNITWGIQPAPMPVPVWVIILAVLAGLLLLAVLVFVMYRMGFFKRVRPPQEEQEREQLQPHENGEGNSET
UniProt Q9Z0T9: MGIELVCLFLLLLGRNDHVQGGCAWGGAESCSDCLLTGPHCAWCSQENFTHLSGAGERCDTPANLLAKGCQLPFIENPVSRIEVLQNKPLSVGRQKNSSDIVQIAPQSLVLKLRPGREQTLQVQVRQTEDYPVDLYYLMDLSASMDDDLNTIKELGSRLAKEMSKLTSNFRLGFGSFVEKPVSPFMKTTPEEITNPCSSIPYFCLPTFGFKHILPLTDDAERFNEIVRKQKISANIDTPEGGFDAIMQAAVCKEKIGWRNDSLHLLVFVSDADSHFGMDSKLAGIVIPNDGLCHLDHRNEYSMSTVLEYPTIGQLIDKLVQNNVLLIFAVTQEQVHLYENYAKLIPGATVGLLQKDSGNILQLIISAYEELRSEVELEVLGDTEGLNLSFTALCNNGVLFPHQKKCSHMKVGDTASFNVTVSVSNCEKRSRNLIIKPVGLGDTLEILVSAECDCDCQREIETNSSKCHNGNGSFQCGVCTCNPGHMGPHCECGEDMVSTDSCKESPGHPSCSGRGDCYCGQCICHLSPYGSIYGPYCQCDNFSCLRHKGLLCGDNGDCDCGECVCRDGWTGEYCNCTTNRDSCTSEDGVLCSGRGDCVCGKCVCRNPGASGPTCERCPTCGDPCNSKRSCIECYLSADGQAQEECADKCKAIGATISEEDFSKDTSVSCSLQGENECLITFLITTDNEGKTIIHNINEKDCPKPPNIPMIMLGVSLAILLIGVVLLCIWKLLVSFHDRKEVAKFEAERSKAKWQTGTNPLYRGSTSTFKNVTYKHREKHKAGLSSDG
UniProt P01137, residues 30-278: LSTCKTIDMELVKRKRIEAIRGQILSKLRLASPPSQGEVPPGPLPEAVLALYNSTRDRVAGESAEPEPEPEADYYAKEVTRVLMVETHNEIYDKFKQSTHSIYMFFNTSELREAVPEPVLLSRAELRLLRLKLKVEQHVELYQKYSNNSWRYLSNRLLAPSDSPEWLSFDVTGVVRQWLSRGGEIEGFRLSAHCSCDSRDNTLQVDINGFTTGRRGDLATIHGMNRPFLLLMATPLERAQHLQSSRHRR

These are yes or no findings as the source states them, for the method shown. For part of these data: In cells and extracts the contact can be indirect. Some binding calls cover weakened binding; strength is not graded here.

The target of assay [1] is αvβ6 integrin lentivirally expressed by HEK293T cells (mouse) (UniProt P43406+Q9Z0T9). Kind of assay: co-IP; HEK293T cells expressing αvβ6 integrin incubated 6 h at 37°C with Del-1 (1 μg/mL; 20 nM) and/or LAP (0.5 μg/mL; 20 nM); lysed in 1% CHAPS, 30 mM Tris-HCl pH 7.5, 150 mM NaCl; anti-Flag immunoprecipitation; blots for Del-1, LAP, Flag; only the binder purified.
The target of assay [2] is recombinant latency-associated peptide (LAP) (UniProt P01137). Kind of assay: ELISA; binding of Del-1 to immobilized αvβ3 integrin and LAP, with or without pretreatment with αvβ3 integrin (Figure S1B); methods of this experiment not shown; both purified.

“recombinant latency-associated peptide (LAP) (from UniProt P01137 30-278)”: the binding result in assay [1] is on record as “binds”.

B1: recombinant human Del-1 (developmental endothelial locus-1) (protein, UniProt O43854 24-480)
chain: DICDPNPCENGGICLPGLADGSFSCECPDGFTDPNCSSVVEVASDEEEPTSAGPCTPNPCHNGGTCEISEAYRGDTFIGYVCKCPRGFNGIHCQHNINECEVEPCKNGGICTDLVANYSCECPGEFMGRNCQYKCSGPLGIEGGIISNQQITASSTHRALFGLQKWYPYYARLNKKGLINAWTAAENDRWPWIQINLQRKMRVTGVITQGAKRIGSPEYIKSYKIAYSNDGKTWAMYKVKGTNEDMVFRGNIDNNTPYANSFTPPIKAQYVRLYPQVCRRHCTLRMELLGCELSGCSEPLGMKSGHIQDYQITASSIFRTLNMDMFTWEPRKARLDKQGKVNAWTSGHNDQSQWLQVDLLVPTKVTGIITQGAKDFGHVQFVGSYKLAYSNDGEHWTVYQDEKQRKDKVFQGNFDNDTHRKNVIDPPIYARHIRILPWSWYGRITLRSELLGCTEEE
In the case of B1, the binding result in assay [2] and in assay [1] was “binds” each time.
